Laboratory results published in publication PMC7367184.

Biological target: T1, HA-HCF2 (host cell factor 2) (UniProt Q9Y5Z7)
T1 sequence: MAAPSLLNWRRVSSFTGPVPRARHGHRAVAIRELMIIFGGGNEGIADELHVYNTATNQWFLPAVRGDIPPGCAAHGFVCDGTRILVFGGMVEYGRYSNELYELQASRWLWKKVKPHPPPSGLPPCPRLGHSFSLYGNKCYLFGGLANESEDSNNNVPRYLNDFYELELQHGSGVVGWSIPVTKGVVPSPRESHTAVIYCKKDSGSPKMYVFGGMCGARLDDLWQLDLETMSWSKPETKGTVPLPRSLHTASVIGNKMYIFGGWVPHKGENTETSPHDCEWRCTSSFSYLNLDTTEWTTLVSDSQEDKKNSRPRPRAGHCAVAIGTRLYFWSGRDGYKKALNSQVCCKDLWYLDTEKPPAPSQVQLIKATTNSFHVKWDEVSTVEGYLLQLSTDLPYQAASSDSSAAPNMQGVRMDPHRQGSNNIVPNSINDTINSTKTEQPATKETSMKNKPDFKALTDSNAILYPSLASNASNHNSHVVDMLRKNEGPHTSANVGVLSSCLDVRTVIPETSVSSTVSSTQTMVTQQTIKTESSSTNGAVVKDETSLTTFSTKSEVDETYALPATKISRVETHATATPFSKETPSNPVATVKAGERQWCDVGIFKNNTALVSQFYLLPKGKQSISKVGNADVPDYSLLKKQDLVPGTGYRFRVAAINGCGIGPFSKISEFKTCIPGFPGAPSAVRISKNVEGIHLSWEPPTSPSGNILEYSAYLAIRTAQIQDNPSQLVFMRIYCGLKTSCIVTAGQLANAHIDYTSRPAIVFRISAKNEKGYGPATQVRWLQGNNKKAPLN
Experiment: co-IP; anti-HA agarose IP of whole cell extracts of 293T cells transfected with F-Siah1 proteins and HA-HCF1 or HA-HCF2; washes with buffer D with 0.3 M KCl, then 0.1 M KCl; Western blot

- binding: binds
Substance: Flag-tagged Siah1 SBD (just the substrate-binding domain) (domain or fragment)

Results are given in words; binding and its absence hold for the method and conditions named. In cells and extracts the contact can be indirect. Binding calls can cover weak binding; strength is not graded here. Where a sequence is shown, tags or fusion partners need not be part of it.
